This passage reports binding results from PMC4297356.

Results are given in words; binding and its absence hold for the method and conditions named. Binding seen in cells or lysates may run through a third protein. These calls come from enrichment with a bait or labelling near it, and not all partners need be listed. Tags and fused reporters may be left off the sequences shown.

Sequences and labels used below:
T1: Vipp1–GFP (Synechocystis Vipp1 tagged with green fluorescent protein at the C-terminus) (Synechocystis sp. PCC6803) (UniProt Q55707)
T1 sequence: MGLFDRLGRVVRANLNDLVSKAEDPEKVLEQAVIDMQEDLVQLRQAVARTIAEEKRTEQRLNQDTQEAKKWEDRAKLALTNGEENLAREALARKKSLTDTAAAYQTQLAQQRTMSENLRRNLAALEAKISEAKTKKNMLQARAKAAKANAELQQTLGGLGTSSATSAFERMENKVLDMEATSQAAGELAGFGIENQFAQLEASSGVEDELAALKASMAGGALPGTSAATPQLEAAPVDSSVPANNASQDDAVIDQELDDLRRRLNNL

B1: Phosphoglycerate kinase (protein, UniProt P74421 1-401)
chain: MLSKQSIANLTEADLAGKRVFVRVDFNVPLDNGSITDDTRIRAALPTIKDLLSKGAKVILGSHFGRPKGKVVDSMRLTPVGDRLGELLGQPVVKCDDCIGAEVTAKIASLPNGGVALLENLRFHAGEEGNDAEFAKALAANADLYVNDAFGTAHRAHASTEGVTHFLSPNVAGYLIEKELQFLQGAIEAPKRPLVAIVGGSKVSSKIGVIETLLDKCDKLIIGGGMIFTFYKAQGLNTGKSLVEEDKLDLAKSLMAKAKEKGVEFLLPTDVVVADNFAPDANAQTVGVDAIPDGWMGLDIGPDSVKTFQDALAGCGTVIWNGPMGVFEFDKFAVGTEAIACSLAELTASGTVTIIGGGDSVAAVEKVGVAEKMSHISTGGGASLELLEGKVLPGIAALDDR
B2: Transketolase (protein, UniProt P73282 1-670)
chain: MVVATQSLDELSINAIRFLAVDAIEKAKSGHPGLPMGAAPMAFTLWNKFMKFNPKNPKWFNRDRFVLSAGHGSMLQYALLYLLGYDSVTIEDIKQFRQWESSTPGHPENFLTAGVEVTTGPLGQGIANGVGLALAEAHLAATYNKPDATIVDHYTYVILGDGCNMEGISGEAASIAGHWGLGKLIALYDDNHISIDGSTDVAFTEDVSKRFEAYGWHVLHVEDGNTDLAAIAKAIEEAKAVTDKPSMIKVTTIIGYGAPNKSDTAGIHGAALGTDEVAATRKNLGWDYAPFEVPQEVLDYTRKAIERGASYEAEWNQAFAQYKTKYPTEAAAFERQLSGALPEGWDKTLASFTPDQKGLATRKYSEECLNALAPVLPELIGGSADLTHSNLTELHCSGDFQKGAYQNRNVHFGVREHAMGAICNGIALHGSGLLPFGATFLIFTDYMRAAIRLSALSEAGVIWVMTHDSIGQGEDGPTHQPIEVLASLRAIPNLTVIRPADGNETSGAYKVAIAKAKENAPTLLSLTRQAVPNLPGTSIDAVAKGAYTIVDSEGVPELILIGTGSEVQLCVAAAEKLAAQGKKVRVVSMPSWELFETQDAAYKESVLPKAVTKRLSVEAATNFGWHKYVGTEGDTVSIETFGASAPGGVCLEKFGFSVDNVLAKAKTLLS
B3: Phosphoribulokinase (protein, UniProt P37101 1-332)
chain: MTTQLDRVVLIGVAGDSGCGKSTFLRRLTDLFGEEFMTVICLDDYHSLDRQGRKAAGVTALDPRANNFDLMYEQIKTLKSGQSIMKPIYNHETGLLDPPEKVEPNKVVVIEGLHPLYDERVRELVDFGVYLDISEEVKINWKIQRDMAERGHTYEDILASINARKPDFTAYIEPQKQYADVVIQVLPTRLIEDKESKLLRVRLVQKEGVKFFEPAYLFDEGSTIDWRPCGRKLTCTYPGIKMYYGPDNFMGNEVSLLEVDGRFENLEEMVYVENHLSKTGTKYYGEMTELLLKHKDYPGTDNGTGLFQVLVGLKMRKVYEQLTAEAKVPASV
B4: Sugar kinase slr0537 (protein, UniProt Q55480 1-333)
chain: MGHKYDVYGMGNALVDMEFEVTPEQLASLGIDKGVMTLVEEARENELIAQLAQQRGKQSSGGSAANTLVSLAQLGGTGFYACKVGKDEAGAFYLQDLNDCGLDTNPHHETAGEGITGKCLVFVTPDADRTMNAFLGISGSLSVTEMDWSALKQSQYLYLEGYLVTSPSAKAACIEAKAIAEQSGVKTCLSLSDPNMAKFFQDGLKEMLGSGVDLLFANEAEALEMAGTSDLNQAIAYCKSIAKNFALTRGGAGSLIFDGENLLTIGTPKVQPIDTVGAGDMYAGGFLYGLTHGMDYEKAGQLASETAAKVVTCYGPRLDTEILQEILQSVQAV

This assay addresses T1, Vipp1–GFP (Synechocystis Vipp1 tagged with green fluorescent protein at the C-terminus) (Synechocystis sp. PCC6803). The experiment in a line: affinity purification with mass spectrometry; anti-GFP microbeads (μMACS column) on lysate of HL-exposed (600 μE m^−2 s^−1) Synechocystis vipp1–gfp cells broken without detergent; bound fraction on 10% SDS-PAGE, bands identified by MS/MS; compared with LL vipp1–gfp and HL wild-type cells.
As for B1, the binding result is listed as “binds”. Turning to B2, the binding entry was “binds”. Next, B3: “binds”; B4: “binds”.
